Test [1] deals with T1, GST-GPR85-C (C-terminal sequence of GPR85, …, fused to glutathione S-transferase) (human).
T1 sequence: SRLPREPYCVI
Put plainly: pull-down; GST fusion protein bound to Glutathione Sepharose beads, incubated with lysates of COS cells transfected with GFP-tagged proteins for 2 h at 4°C; washed three times with lysis buffer; eluted with 20 mM reduced glutathione; immunoblot with anti-GFP; only the target purified.

Protein sequences, listed by entry. Tags and fused reporters are not part of them.
UniProt Q8VBX6: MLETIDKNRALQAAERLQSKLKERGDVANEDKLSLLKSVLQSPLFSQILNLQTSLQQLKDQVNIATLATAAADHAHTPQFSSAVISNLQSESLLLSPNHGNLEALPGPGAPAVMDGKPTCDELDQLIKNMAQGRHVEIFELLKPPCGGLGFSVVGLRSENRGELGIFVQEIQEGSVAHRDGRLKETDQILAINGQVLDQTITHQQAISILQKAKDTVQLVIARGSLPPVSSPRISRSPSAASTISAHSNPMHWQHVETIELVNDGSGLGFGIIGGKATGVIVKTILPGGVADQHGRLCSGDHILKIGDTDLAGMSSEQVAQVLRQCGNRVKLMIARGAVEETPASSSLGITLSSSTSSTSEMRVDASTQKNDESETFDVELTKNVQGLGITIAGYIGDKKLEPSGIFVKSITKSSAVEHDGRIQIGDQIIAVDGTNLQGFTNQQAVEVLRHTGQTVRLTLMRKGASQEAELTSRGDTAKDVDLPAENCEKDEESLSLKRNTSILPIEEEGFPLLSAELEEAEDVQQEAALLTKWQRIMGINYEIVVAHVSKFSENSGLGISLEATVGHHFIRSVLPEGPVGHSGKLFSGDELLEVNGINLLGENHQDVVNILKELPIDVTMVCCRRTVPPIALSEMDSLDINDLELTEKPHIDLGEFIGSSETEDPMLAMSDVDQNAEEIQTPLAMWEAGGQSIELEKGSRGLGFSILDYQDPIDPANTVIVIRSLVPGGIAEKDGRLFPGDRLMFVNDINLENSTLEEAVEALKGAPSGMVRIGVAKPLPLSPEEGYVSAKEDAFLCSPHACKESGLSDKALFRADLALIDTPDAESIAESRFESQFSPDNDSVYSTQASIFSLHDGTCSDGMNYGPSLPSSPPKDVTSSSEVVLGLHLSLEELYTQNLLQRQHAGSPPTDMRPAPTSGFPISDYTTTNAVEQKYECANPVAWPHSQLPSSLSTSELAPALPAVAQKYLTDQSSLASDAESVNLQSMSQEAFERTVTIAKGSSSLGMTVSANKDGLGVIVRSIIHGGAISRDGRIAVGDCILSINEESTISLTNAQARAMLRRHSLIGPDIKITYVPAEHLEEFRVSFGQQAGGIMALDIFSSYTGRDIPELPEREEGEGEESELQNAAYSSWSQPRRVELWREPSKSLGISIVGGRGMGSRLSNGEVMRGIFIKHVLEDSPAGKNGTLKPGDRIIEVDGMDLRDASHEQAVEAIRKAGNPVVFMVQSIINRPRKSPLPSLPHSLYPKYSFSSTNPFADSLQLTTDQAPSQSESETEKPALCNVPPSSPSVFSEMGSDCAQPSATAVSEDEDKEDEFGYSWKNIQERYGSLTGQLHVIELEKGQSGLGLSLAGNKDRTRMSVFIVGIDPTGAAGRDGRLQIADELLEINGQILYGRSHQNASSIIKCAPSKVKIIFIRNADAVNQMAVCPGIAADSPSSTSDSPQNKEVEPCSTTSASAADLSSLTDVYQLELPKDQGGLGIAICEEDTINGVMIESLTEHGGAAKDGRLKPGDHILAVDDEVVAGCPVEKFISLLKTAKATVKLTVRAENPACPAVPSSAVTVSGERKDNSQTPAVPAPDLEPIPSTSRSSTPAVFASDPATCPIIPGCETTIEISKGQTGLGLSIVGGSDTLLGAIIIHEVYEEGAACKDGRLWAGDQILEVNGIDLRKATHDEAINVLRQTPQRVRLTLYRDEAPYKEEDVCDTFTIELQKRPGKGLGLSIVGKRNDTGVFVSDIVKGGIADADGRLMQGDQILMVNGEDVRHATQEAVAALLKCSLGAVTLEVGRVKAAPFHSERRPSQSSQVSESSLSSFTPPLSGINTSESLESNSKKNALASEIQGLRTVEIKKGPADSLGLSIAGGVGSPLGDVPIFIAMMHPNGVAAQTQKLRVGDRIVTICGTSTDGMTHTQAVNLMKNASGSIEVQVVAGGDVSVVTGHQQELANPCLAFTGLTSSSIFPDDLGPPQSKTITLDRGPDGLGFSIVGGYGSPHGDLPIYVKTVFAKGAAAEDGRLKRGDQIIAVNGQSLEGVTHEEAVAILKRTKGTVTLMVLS

Test [2] has the same target. Put plainly: pull-down; GST fusion protein bound to Glutathione Sepharose beads, incubated with mouse brain lysate for 2 h at 4°C; washed three times with lysis buffer; eluted with 20 mM reduced glutathione in 50 mM Tris-HCl pH 8.0; immunoblot with specific antibodies; only the target purified. A general note: In western blotting, separated proteins are transferred to a membrane and probed.

The target is the same in test [3]. Kind of test: pull-down; GST fusion protein bound to Glutathione Sepharose beads, incubated with lysates of COS cells transfected with GFP-tagged proteins for 2 h at 4°C; washed three times with lysis buffer; eluted with 20 mM reduced glutathione; immunoblot with anti-GFP; only the target purified. This is another data set of the same source.

Results are given in words; binding and its absence hold for the method and conditions named. Binding seen in cells or lysates may run through a third protein. Some binding calls cover weakened binding; strength is not graded here. Sequences can lack the tags named with a protein.

Regarding GFP-Mupp-1 (from UniProt Q8VBX6 1-2055), in test [1], the binding entry is recorded as “no binding”. Turning to “Mupp1, in mouse brain extract (from UniProt Q8VBX6 1-2055)”, the binding result in test [2] is reported as “no binding”.

B1: SAP102, in mouse brain extract (protein, UniProt P70175 1-849)
chain: MHKHQHCCKCPECYEVTRLAALRRLEPPGYGDWQVPDPYGPSGGNGASSGYGGYSSQTLPSQAGATPTPRTKAKLIPTGRDVGPVPPKPVPGKSTPKLNGSGPGWWPECTCTNRDWYEQASPAPLLVNPEALEPSLSVNGSDGMFKYEEIVLERGNSGLGFSIAGGIDNPHVPDDPGIFITKIIPGGAAAMDGRLGVNDCVLRVNEVDVSEVVHSRAVEALKEAGPVVRLVVRRRQPPPETIMEVNLLKGPKGLGFSIAGGIGNQHIPGDNSIYITKIIEGGAAQKDGRLQIGDRLLAVNNTNLQDVRHEEAVASLKNTSDMVYLKVAKPGSIHLNDMYAPPDYASTFTALADNHISHNSSLGYLGAVESKVTYPAPPQVPPTRYSPIPRHMLAEEDFTREPRKIILHKGSTGLGFNIVGGEDGEGIFVSFILAGGPADLSGELRRGDRILSVNGVNLRNATHEQAAAALKRAGQSVTIVAQYRPEEYSRFESKIHDLREQMMNSSMSSGSGSLRTSEKRSLYVRALFDYDRTRDSCLPSQGLSFSYGDILHVINASDDEWWQARLVTPHGESEQIGVIPSKKRVEKKERARLKTVKFHARTGMIESNRDFPGLSDDYYGAKNLKGVTSNTSDSESSSKGQEDAILSYEPVTRQEIHYARPVIILGPMKDRVNDDLISEFPHKFGSCVPHTTRPRRDNEVDGQDYHFVVSREQMEKDIQDNKFIEAGQFNDNLYGTSIQSVRAVAERGKHCILDVSGNAIKRLQQAQLYPIAIFIKPKSIEALMEMNRRQTYEQANKIFDKAMKLEQEFGEYFTAIVQGDSLEEIYNKIKQIIEDQSGHYIWVPSPEKL
As to B1, in test [2], the binding entry is “binds”.

B2: GFP-SAP102 (protein, UniProt P70175 1-849)
chain: MHKHQHCCKCPECYEVTRLAALRRLEPPGYGDWQVPDPYGPSGGNGASSGYGGYSSQTLPSQAGATPTPRTKAKLIPTGRDVGPVPPKPVPGKSTPKLNGSGPGWWPECTCTNRDWYEQASPAPLLVNPEALEPSLSVNGSDGMFKYEEIVLERGNSGLGFSIAGGIDNPHVPDDPGIFITKIIPGGAAAMDGRLGVNDCVLRVNEVDVSEVVHSRAVEALKEAGPVVRLVVRRRQPPPETIMEVNLLKGPKGLGFSIAGGIGNQHIPGDNSIYITKIIEGGAAQKDGRLQIGDRLLAVNNTNLQDVRHEEAVASLKNTSDMVYLKVAKPGSIHLNDMYAPPDYASTFTALADNHISHNSSLGYLGAVESKVTYPAPPQVPPTRYSPIPRHMLAEEDFTREPRKIILHKGSTGLGFNIVGGEDGEGIFVSFILAGGPADLSGELRRGDRILSVNGVNLRNATHEQAAAALKRAGQSVTIVAQYRPEEYSRFESKIHDLREQMMNSSMSSGSGSLRTSEKRSLYVRALFDYDRTRDSCLPSQGLSFSYGDILHVINASDDEWWQARLVTPHGESEQIGVIPSKKRVEKKERARLKTVKFHARTGMIESNRDFPGLSDDYYGAKNLKGVTSNTSDSESSSKGQEDAILSYEPVTRQEIHYARPVIILGPMKDRVNDDLISEFPHKFGSCVPHTTRPRRDNEVDGQDYHFVVSREQMEKDIQDNKFIEAGQFNDNLYGTSIQSVRAVAERGKHCILDVSGNAIKRLQQAQLYPIAIFIKPKSIEALMEMNRRQTYEQANKIFDKAMKLEQEFGEYFTAIVQGDSLEEIYNKIKQIIEDQSGHYIWVPSPEKL
In the case of B2, in test [3], the binding entry is “binds weakly”.

The values are drawn from publication PMC4360946.
